Assay results published in patent publication US8748575B2 (Combimab, Inc., priority 2010, dated 2014).

Assay: peptide synthesis
Details: whole synthesis, HPLC

Row | Substance | purity (crude or final not stated) [%]
1 | H2N Cys Cys Glu L-Thr Cys Cys Asn Pro Ala Cys Ala Gly Cys Tyr COOH (CCETCCNPACAGCY) | 97
2 | H2N Cys Cys Glu Leu Cys Cys Asn Dhp Ala Cys Ala Gly Cys Tyr COOH | 98
3 | H2N Cys Cys Glu Leu Cys Cys Asn HyPro Ala Cys Ala Gly Cys Tyr COOH | 95
4 | H2N Cys Cys Glu Leu Cys Cys Asn Thz Ala Cys Ala Gly Cys Tyr COOH | 99
